# About 1,400 (4.5%) of roughly 31,000 sequences were called active.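 The calls were made as follows: active = median seed-adjusted z-score above 1 or below -1; inactive = the rest.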 This is one part of the list.
# Experiment: Novel Modifiers of Survival Motor Neuron (SMN) Protein: Gene Identification via Genome-wide siRNA Screen;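 also: luminescence tracks full-length SMN protein made from the SMN2 reporter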
# Conditions: HEK293T SMN2-luciferase reporter, siRNA knockdown, 72 h; actives lie on both sides
# Outline: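 Each of three siRNAs per gene is reverse-transfected (1 pmol) into reporter HEK293T cells whose luciferase output tracks SMN protein level. After 72 h culture, ONE-Glo luminescence is control-normalized, log10-transformed and MAD-standardized; Common Seed Analysis deprioritizes seed-driven hits.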
row,Sequence,median seed-adjusted z-score
1,GGUACUUUGUGAGCGAGGATT against RPS6KL1,inactive: 0.0816
2,CCACAUCUCCUAGCAGGUATT against RBM7,inactive: 0
3,GUAUAUGGGCUGUUAUAAATT against IL1RAP,inactive: -0.23
4,GGACUUGCUGGAAAGCACATT against NCALD,inactive: 0
5,AGUAUGAGGUGUCCCAUGATT against CPNE7,inactive: 0.262
6,CGAUGUAUGACGAGGAAAATT against BTNL3,inactive: 0
7,CAAGGACACUUCAUCGUGATT against AVPR2,inactive: -0.262
8,GGGUGACUCUCUGACUACATT against PLB1,inactive: -0.118
9,GCAGAGCAGUUUGACGAAUTT against FH,inactive: 0.182
10,CGAAUUCAGGUCAACAAUATT against TRERF1,inactive: -0.0952
11,CGGAGAAGGUGUCAAAGCATT against GJA8,inactive: 0
12,CUCUGGUACCGAUACCUGATT against XAB2,inactive: 0.0628
13,CCACCACGGAUAUCAAAGATT against WDTC1,inactive: -0.412
14,CUGAUGUGGUCUCACCUAATT against C3AR1,inactive: -0.916
15,CCUCAUACAUCUAAAUUUATT against ANP32D,inactive: -0.714
16,GGAUUGUUUGGAACCAGUUTT against NUP98,inactive: 0.168
17,GCGAAGAGCUGACCAAAUATT against NOD1,inactive: 0.092
18,GGAGAUACCUGGUCUCUUUTT against ADAM21,inactive: 0
19,GUCUGGAACUUCAAGAUGATT against UPB1,inactive: -0.0341
20,GCCCAGGUGAGGUAUCUGATT against PNMA2,inactive: 0.629
21,GCUUUAGCGAAAGACCUAATT against RPS6KA5,inactive: -0.0588
22,CGAUAUGGAUUUACGGCUUTT against ABCG2,inactive: 0
23,UGUGGAACCUGUCAUCCUATT against ARVCF,inactive: 0.372
24,GCUAAGAUGCGUUUUCACATT against GFRA3,inactive: -0.326
25,GGGUAAAUCACAUCGUUAATT against REV1,inactive: -0.294
26,GAACAUAUCAAGACCGGUUTT against MED30,active: -2.06
27,CCUUUCCGAUCAUCACGAATT against KNG1,inactive: 0

row,Sequence,median seed-adjusted z-score
1,CGUGGACUCCCACUUCCAATT against OGG1,inactive: -0.128
2,GGAUAACAUUUGCUCCAUUTT against GNB1,inactive: -0.166
3,CCCUUACCCAAAACGAGAATT against CDK8,active: -1.47
4,GGACUUGUAUAUGAGUAUATT against CCT6A,inactive: -0.286
5,CAAAGUCGGAUAUAAAGUATT against ZNF645,inactive: 0.079
6,GGUUCAUCAGUAAUCCUAATT against DNM1L,inactive: -0.153
7,CCUCUGAUCUCACGCACUATT against ATP2B4,inactive: 0
8,GACCCUUACUGGACAGACATT against C1QTNF2,inactive: 0.0697
9,UCAUGAAUAUCGUAGAUGATT against ADAMTS14,inactive: 0.209
10,AGCUUUCAGAUAUUACCAATT against ZNF709,inactive: 0.0129
11,AGUGGAAACUUUUGUCGGATT against SOX2,inactive: 0.0559
12,AGACAGAGCCGAGAACCUATT against POFUT2,inactive: -0.86
13,CGGAUUAUCUUCUAUCUAUTT against SLC6A14,inactive: 0
14,CAACCAAAGUCGAAUAUGATT against PLK1,active: -2.57
15,CGGCAACGGAAGAAGAUGATT against PPP1R1A,inactive: -0.529
16,GACUGGUUUUCGGAGCAAATT against ACR,inactive: -0.655
17,GAAGGUUUACAAGGACUUATT against KLK7,inactive: 0
18,CCAACCAUGUGGUCACUCUTT against RXFP4,inactive: -0.315
19,CUAUAUUGCAAUAUCCAAATT against COL21A1,inactive: 0.296
20,GAACUGAUGAUUACUUAGATT against GDI2,inactive: -0.161
21,GCAGAUAAGUGAACGAGAUTT against SAMHD1,active: -1.33
22,GCAUGGAUCAUGAUAGACATT against LARS,inactive: -0.788
23,GGGACGAGAUGGUAAAGAATT against ATP2B2,active: 1.37
24,CCUGGGUCGUUAGAGGACATT against MMP25,inactive: 0
25,CCAUGCUGGAGAUCAAGAATT against PRKAG3,active: -1.03
26,GCAUUACGGAAGAAGCUUATT against IPMK,inactive: -0.00138
27,GAACCUCAGUGUCCGUGUATT against TRIP10,inactive: -0.261

# Copied from the results shown for reference:
row,Sequence,median seed-adjusted z-score
13,CGGAUUAUCUUCUAUCUAUTT against SLC6A14,inactive: 0
14,CAACCAAAGUCGAAUAUGATT against PLK1,active: -2.57
15,CGGCAACGGAAGAAGAUGATT against PPP1R1A,inactive: -0.529
16,GACUGGUUUUCGGAGCAAATT against ACR,inactive: -0.655
17,GAAGGUUUACAAGGACUUATT against KLK7,inactive: 0
18,CCAACCAUGUGGUCACUCUTT against RXFP4,inactive: -0.315
19,CUAUAUUGCAAUAUCCAAATT against COL21A1,inactive: 0.296
20,GAACUGAUGAUUACUUAGATT against GDI2,inactive: -0.161
21,GCAGAUAAGUGAACGAGAUTT against SAMHD1,active: -1.33
22,GCAUGGAUCAUGAUAGACATT against LARS,inactive: -0.788
23,GGGACGAGAUGGUAAAGAATT against ATP2B2,active: 1.37
24,CCUGGGUCGUUAGAGGACATT against MMP25,inactive: 0

# Reference: PubChem BioAssay AID1347426 (Functional Genomics Laboratory (NCATS/FGL), 2020)
